The data set is described as follows: In vivo microdialysis-CLC-MS2 monitoring of endogenous peptides in globus pallidus dialysate. Also noted: species or system rat. As to conditions: endogenous peptide, globus pallidus of anesthetized rats, n=7.

YGGFM [Met-enkephalin]: the “(maximum) K+-stimulated dialysate level” value (150 mM K+ through the probe) is 1900 ± 500 pM. In addition, the basal dialysate level (basal conditions) is 60 ± 30 pM.
